# Data taken from the supplement of paper PMC8728848.
# The list shows a part of the results.
# B1: CTLX (Homo sapiens), Q6UXS0 (protein)
# chain: SLCPLFWMEFKGHCYRFFPLNKTWAEADLYCSEFSVGRKSAKLASIHSWEENVFVYDLVNSCVPGIPADVWTGLHDHRQEGQFEWTDGSSYDYSYWDGSQPDDGVHADPEEEDCVQIWYRPTSALRSWNDNTCSRKFPFVCKIPSLTIH
# Tests used:
# Test in all cases: glycan array binding signal (z-score within array); higher = stronger binding
# Settings in all cases: glycan notation: IUPAC condensed, linker removed
# [1] = biological target: Gal(b1-4)GlcNAc(b1-3)[GlcNAc(b1-6)]Gal(b1-4)GlcNAc
# Outline: (§1)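 The binding signal is a Z-score computed within each array. Data were drawn from 3228 arrays in the Consortium for Functional Glycomics database, restricted to those with a known protein sequence. Scores were averaged over arrays of the same protein sequence at different concentrations or buffers, and over linkers, and negative values can be taken as non-binding.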
# [2] = biological target: Gal(b1-4)GlcNAc(b1-6)Gal(b1-4)GlcNAc
# Outline: as §1
# [3] = biological target: Gal(b1-4)GlcNAc(b1-6)Gal(b1-4)GlcNAc(b1-6)GalNAc
# Outline: as §1
# [4] = biological target: Gal(b1-4)GlcNAc(b1-6)GalNAc
# Outline: as §1
# [5] = biological target: Gal(b1-4)GlcNAc(b1-6)[Gal(b1-3)]GalNAc
# Outline: as §1
# Gal3S(b1-3)GalNAc = biological target: Gal3S(b1-3)GalNAc
# Outline: as §1
# Gal3S(b1-3)GlcNAc = biological target: Gal3S(b1-3)GlcNAc
# Outline: as §1
# [6] = biological target: Gal3S(b1-3)[Fuc(a1-4)]GlcNAc
# Outline: as §1
# Gal3S(b1-4)Glc = biological target: Gal3S(b1-4)Glc
# Outline: as §1
# Gal3S(b1-4)Glc6S = biological target: Gal3S(b1-4)Glc6S
# Outline: as §1
# Gal3S(b1-4)GlcNAc = biological target: Gal3S(b1-4)GlcNAc
# Outline: as §1
# Gal3S(b1-4)GlcNAc6S = biological target: Gal3S(b1-4)GlcNAc6S
# Outline: as §1
# [7] = biological target: Gal3S(b1-4)[Fuc(a1-3)]Glc
# Outline: as §1
# Gal3S4S(b1-4)GlcNAc = biological target: Gal3S4S(b1-4)GlcNAc
# Outline: as §1
# Gal3S6S(b1-4)GlcNAc = biological target: Gal3S6S(b1-4)GlcNAc
# Outline: as §1
# Gal3S6S(b1-4)GlcNAc6S = biological target: Gal3S6S(b1-4)GlcNAc6S
# Outline: as §1
# Gal4S(b1-4)GlcNAc = biological target: Gal4S(b1-4)GlcNAc
# Outline: as §1
# Gal4S6S(b1-4)GlcNAc = biological target: Gal4S6S(b1-4)GlcNAc
# Outline: as §1
# Gal6S(b1-4)Glc = biological target: Gal6S(b1-4)Glc
# Outline: as §1
# Gal6S(b1-4)Glc6S = biological target: Gal6S(b1-4)Glc6S
# Outline: as §1
# Gal6S(b1-4)GlcNAc = biological target: Gal6S(b1-4)GlcNAc
# Outline: as §1
# Gal6S(b1-4)GlcNAc6S = biological target: Gal6S(b1-4)GlcNAc6S
# Outline: as §1
# GalNAc(a1-3)Gal = biological target: GalNAc(a1-3)Gal
# Outline: as §1
# GalNAc(a1-3)GalNAc = biological target: GalNAc(a1-3)GalNAc
# Outline: as §1
# GalNAc(b1-3)Gal = biological target: GalNAc(b1-3)Gal
# Outline: as §1
# [8] = biological target: GalNAc(b1-3)Gal(a1-4)Gal(b1-4)GlcNAc
# Outline: as §1
# [9] = biological target: GalNAc(b1-3)Gal(a1-4)Gal(b1-4)GlcNAc(b1-3)Gal(b1-4)Glc
# Outline: as §1
# GalNAc(b1-3)GalNAc = biological target: GalNAc(b1-3)GalNAc
# Outline: as §1
# GalNAc(b1-4)GlcNAc = biological target: GalNAc(b1-4)GlcNAc
# Outline: as §1
# [10] = biological target: GalNAc(b1-4)GlcNAc(b1-2)Man(a1-3)[GalNAc(b1-4)GlcNAc(b1-2)Man(a1-6)]Man(b1-4)GlcNAc(b1-4)GlcNAc
# Outline: as §1
# Glc(a1-4)Glc = biological target: Glc(a1-4)Glc
# Outline: as §1
# Glc(a1-6)Glc(a1-6)Glc = biological target: Glc(a1-6)Glc(a1-6)Glc
# Outline: as §1
# Glc(b1-4)Glc = biological target: Glc(b1-4)Glc
# Outline: as §1
# Glc(b1-6)Glc = biological target: Glc(b1-6)Glc
# Outline: as §1
# GlcA(b1-3)Gal = biological target: GlcA(b1-3)Gal
# Outline: as §1
# GlcA(b1-3)GlcNAc = biological target: GlcA(b1-3)GlcNAc
# Outline: as §1
# GlcA(b1-6)Gal = biological target: GlcA(b1-6)Gal
# Outline: as §1
# [11] = biological target: GlcNAc(a1-3)Gal(b1-4)GlcNAc
# Outline: as §1
# [12] = biological target: GlcNAc(a1-4)Gal(b1-3)GlcNAc
# Outline: as §1
# [13] = biological target: GlcNAc(a1-4)Gal(b1-4)GalNAc
# Outline: as §1
# [14] = biological target: GlcNAc(a1-4)Gal(b1-4)GlcNAc
# Outline: as §1
# [15] = biological target: GlcNAc(a1-4)Gal(b1-4)GlcNAc(b1-3)Gal(b1-4)Glc
# Outline: as §1
# [16] = biological target: GlcNAc(a1-4)Gal(b1-4)GlcNAc(b1-3)Gal(b1-4)GlcNAc
# Outline: as §1
# [17] = biological target: GlcNAc(a1-4)Gal(b1-4)GlcNAc(b1-3)Gal(b1-4)GlcNAc(b1-3)Gal(b1-4)GlcNAc
# Outline: as §1
# [18] = biological target: GlcNAc(a1-4)Gal(b1-4)GlcNAc(b1-3)Gal(b1-4)[Fuc(a1-3)]GlcNAc(b1-3)Gal(b1-4)[Fuc(a1-3)]GlcNAc
# Outline: as §1
binder,measurement,setting,value
B1,glycan array binding signal (z-score),[1],-0.019
same,glycan array binding signal (z-score),[2],-0.149
same,glycan array binding signal (z-score),[3],0.499
same,glycan array binding signal (z-score),[4],-0.23
same,glycan array binding signal (z-score),[5],-0.234
same,glycan array binding signal (z-score),Gal3S(b1-3)GalNAc,-0.737
same,glycan array binding signal (z-score),Gal3S(b1-3)GlcNAc,-1.01
same,glycan array binding signal (z-score),[6],-0.77
same,glycan array binding signal (z-score),Gal3S(b1-4)Glc,-0.372
same,glycan array binding signal (z-score),Gal3S(b1-4)Glc6S,0.152
same,glycan array binding signal (z-score),Gal3S(b1-4)GlcNAc,1.03
same,glycan array binding signal (z-score),Gal3S(b1-4)GlcNAc6S,-0.961
same,glycan array binding signal (z-score),[7],-0.137
same,glycan array binding signal (z-score),Gal3S4S(b1-4)GlcNAc,-0.848
same,glycan array binding signal (z-score),Gal3S6S(b1-4)GlcNAc,0.993
same,glycan array binding signal (z-score),Gal3S6S(b1-4)GlcNAc6S,-0.11
same,glycan array binding signal (z-score),Gal4S(b1-4)GlcNAc,0.292
same,glycan array binding signal (z-score),Gal4S6S(b1-4)GlcNAc,0.725
same,glycan array binding signal (z-score),Gal6S(b1-4)Glc,-0.13
same,glycan array binding signal (z-score),Gal6S(b1-4)Glc6S,1.13
same,glycan array binding signal (z-score),Gal6S(b1-4)GlcNAc,0.34
same,glycan array binding signal (z-score),Gal6S(b1-4)GlcNAc6S,-0.915
same,glycan array binding signal (z-score),GalNAc(a1-3)Gal,-0.098
same,glycan array binding signal (z-score),GalNAc(a1-3)GalNAc,-0.619
same,glycan array binding signal (z-score),GalNAc(b1-3)Gal,-0.647
same,glycan array binding signal (z-score),[8],-0.505
same,glycan array binding signal (z-score),[9],0.605
same,glycan array binding signal (z-score),GalNAc(b1-3)GalNAc,-0.421
same,glycan array binding signal (z-score),GalNAc(b1-4)GlcNAc,0.071
same,glycan array binding signal (z-score),[10],0.305
same,glycan array binding signal (z-score),Glc(a1-4)Glc,1.17
same,glycan array binding signal (z-score),Glc(a1-6)Glc(a1-6)Glc,0.21
same,glycan array binding signal (z-score),Glc(b1-4)Glc,-0.404
same,glycan array binding signal (z-score),Glc(b1-6)Glc,-0.705
same,glycan array binding signal (z-score),GlcA(b1-3)Gal,-0.766
same,glycan array binding signal (z-score),GlcA(b1-3)GlcNAc,0.103
same,glycan array binding signal (z-score),GlcA(b1-6)Gal,-1.51
same,glycan array binding signal (z-score),[11],-0.363
same,glycan array binding signal (z-score),[12],3.54
same,glycan array binding signal (z-score),[13],0.403
same,glycan array binding signal (z-score),[14],-0.184
same,glycan array binding signal (z-score),[15],-0.478
same,glycan array binding signal (z-score),[16],0.831
same,glycan array binding signal (z-score),[17],0.522
same,glycan array binding signal (z-score),[18],1.83
